Test results: PubChem BioAssay AID2685 (National Center for Advancing Translational Sciences (NCATS), 2010)
Some of the results follow. Further columns of the screen follow, without active or inactive calls. The list favours compounds with an active or inconclusive main result. The note in brackets gives the kind of curve behind each potency; many fits are weak.

Test: qHTS Assay for Lipid Storage Modulators in Drosophila S3 Cells;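 on cell number change: cells counted by Cell Tracker Red CMTPX staining in the red channel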
Conditions: BODIPY lipid droplet fluorescence, 18-24 h; for cell number change: measured here: cell count max response, cells fed with added oleic acid
Procedure, shortened: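 Drosophila S3 cells loaded with oleic acid (400 uM, as added) and compounds at several concentrations; lipid droplets imaged by 488-nm laser-scanning cytometry, 500–530 nm intensity and object ratio to cell channel. Percent activity normalized to 20 uM Triacsin C.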

[1] = measured here: lipid fluorescence (Fed channel) AC50, cells fed with added oleic acid
[2] = measured here: cell number channel AC50, cells fed with added oleic acid

CC(=O)c1sc(C(=O)O)c(-c2ccco2)c1-c1ccco1
cell number change: -14.6%
AC50 [1]: 2.06 µM [falling, full curve, poor fit]

O=C(C(=O)N1CCN(c2ccccc2)CC1)c1cn(CC(=O)N2CCCCCC2)c2ccccc12
cell number change: 22%
AC50 [1]: 0.82 µM [falling, full curve, poor fit]

Clc1ccc(-c2cnn3c(-c4ccncc4)ccnc23)cc1
cell number change: -17%
AC50 [2]: 7.31 µM [falling, single point]
AC50 [1]: 20.6 µM [falling, single point]

COC(=O)c1cc(S(=O)(=O)NCC2CCN(Cc3ccc(C)cc3)CC2)cn1C
cell number change: 1.52%
AC50 [1]: 29.1 µM [rising, single point]

C=CCn1c(=O)c2ccccc2n2c(SCc3nc4ccccc4s3)nnc12
cell number change: 64.8%
AC50 [2]: 0.164 µM [rising, full curve]

S=c1[nH]nc(-c2ccco2)n1Cc1ccccc1
AC50 [2]: 3.26 µM [rising, partial curve, poor fit]
AC50 [1]: 1.03 µM [rising, full curve, poor fit]

O=C(N/N=C/c1ccc[nH]1)c1ccccc1OCc1ccc(F)cc1
cell number change: -12.7%
AC50 [1]: 2.06 µM [rising, partial curve]

COc1ccc(S(=O)(=O)Nc2ccc(S(=O)(=O)NCC3CCCO3)cc2)cc1 (configuration not stated)
cell number change: -3.48%

CC(=O)Nc1ccc2sc(NC(=O)CN3CCOCC3)nc2c1
cell number change: -16.1%
AC50 [1]: 0.731 µM [falling, single point]

COc1ccc(S(=O)(=O)N2CCOC23CCN(C(=O)c2ccc(Cl)cc2Cl)CC3)cc1
cell number change: 21.5%
AC50 [1]: 18.4 µM [falling, single point]

Cc1c(Cl)cccc1NC(=O)Cn1nnc(C(=O)NCc2cccs2)c1N
cell number change: 8.71%
AC50 [2]: 0.092 µM [rising, full curve, poor fit]

Cc1ccc(N2C(=O)c3ccccc3C2Nc2ccccc2)nc1 (configuration not stated)
cell number change: 45.3%
AC50 [2]: 3.26 µM [rising, full curve]
AC50 [1]: 6.51 µM [rising, partial curve]

Cc1ccccc1Cn1cc(CCC(=O)N2CCOCC2)c2ccccc21
cell number change: 16.2%
AC50 [2]: 0.058 µM [rising, full curve, poor fit]

CCc1ccc(-c2csc(-c3c[nH]c4ccccc34)n2)cc1
cell number change: -45.5%
AC50 [2]: 18.4 µM [falling, single point]
AC50 [1]: 29.1 µM [falling, single point]

COc1ccc(CCNC(=O)c2nnn(CC(=O)Nc3cccc(F)c3)c2N)cc1OC
cell number change: 9.63%

CCOC(=O)N1CCN(C(=O)CSc2ccc3nnc(CCNC(=O)c4ccc(OC)cc4)n3n2)CC1
cell number change: -14.7%
AC50 [1]: 5.8 µM [falling, full curve, poor fit]

O=C(Nc1nnc(-c2ccco2)o1)c1ccc(Cl)s1
cell number change: -28.2%
AC50 [1]: 6.51 µM [falling, single point]

Cc1ccc(C(=O)N2CCC3(CC2)NCCc2[nH]cnc23)cc1
cell number change: 12.7%
AC50 [1]: 3.66 µM [falling, partial curve, poor fit]

CCN(CC)CCOc1cccc(C(C)C)c1
cell number change: -52.5%
AC50 [2]: 6.51 µM [falling, full curve, poor fit]
AC50 [1]: 5.17 µM [falling, full curve]

CCCn1c2ccccc2c2nnc(SCC(=O)Nc3cc(C)on3)nc21
AC50 [2]: 0.13 µM [rising, full curve, poor fit]

O=C(NCc1ccc2c(c1)OCO2)c1ccc(Cl)c(S(=O)(=O)N2CCOCC2)c1
cell number change: 44.5%
AC50 [2]: 0.58 µM [rising, full curve, poor fit]
AC50 [1]: 3.66 µM [rising, partial curve, poor fit]

CC1Cc2cc(S(=O)(=O)N3CCC(C(=O)N(C)Cc4ccco4)CC3)ccc2N1C(=O)C1CCC1 (configuration not stated)
cell number change: -8.02%
AC50 [1]: 29.1 µM [rising, single point]

CCc1ccccc1NC(=O)CN(C)C(=O)CSc1nn(-c2ccccc2)c(=S)s1
cell number change: 3.38%
AC50 [1]: 0.651 µM [rising, full curve, poor fit]

Cc1ccc(CNc2ccc([N+](=O)[O-])cc2C(N)=O)cc1
cell number change: -34.6%
AC50 [2]: 9.2 µM [falling, partial curve]
AC50 [1]: 20.6 µM [falling, single point]

CCN(CC)S(=O)(=O)c1ccc(N2CCOCC2)c(NC(=O)COc2ccccc2)c1
cell number change: -47.1%
AC50 [2]: 23.1 µM [falling, single point]
AC50 [1]: 29.1 µM [falling, single point]

COc1cc(OC)c(C(=O)NC2CCCCCC2)cc1OC
cell number change: 158%
AC50 [2]: 3.66 µM [falling, partial curve]

COc1ccc(-c2nc(CCNC(=O)c3cccs3)cs2)cc1
cell number change: -16.1%
AC50 [1]: 6.51 µM [rising, partial curve]

Cc1csc(NC(=O)/C=C/c2ccc3c(c2)OCO3)n1
cell number change: 6.97%
AC50 [1]: 0.164 µM [rising, full curve]

O=C(c1ccco1)N1CCN(C(=O)c2ccccc2OC(=O)C23CC4CC(CC(C4)C2)C3)CC1
cell number change: -0.349%

COc1cc(SC)ccc1C(=O)NCCOc1c(C)cc(C)cc1C
cell number change: 6.15%

CCOC(=O)c1cc2c(=O)n3ccccc3nc2n(CCCOC)c1=NC(C)=O
cell number change: -24.3%
AC50 [1]: 2.59 µM [falling, partial curve, poor fit]

COc1ccc(-c2cc(=O)oc3cc(OC(C)C(=O)NC(Cc4c[nH]c5ccc(O)cc45)C(=O)O)ccc23)cc1 (configuration not stated)
cell number change: 23.6%
AC50 [1]: 29.1 µM [rising, single point]

Cc1c(Cl)cccc1NC(=O)CNC(=O)C1CC(=O)N(CCc2ccccc2)C1 (configuration not stated)
cell number change: 41.2%
AC50 [2]: 0.0291 µM [rising, full curve, poor fit]
AC50 [1]: 29.1 µM [rising, partial curve, poor fit]

O=C(NCc1ccccc1)c1onc(CSc2ccc(Cl)cc2)c1C(=O)NCC1CC1
cell number change: -8.31%
AC50 [1]: 2.91 µM [falling, single point]

O=C(CN1C(=O)NC(c2ccc(F)cc2)C1=O)Nc1ccc2c(c1)OCCO2 (configuration not stated)
cell number change: -38.4%
AC50 [1]: 29.1 µM [falling, single point]

CC(C)=CC(=O)OCC(=O)Nc1nc(C)c(Cl)cc1Cl
cell number change: -0.544%

O=C(CNC(=O)c1ccco1)N/N=C/c1c[nH]c2ccccc12
cell number change: -46.8%
AC50 [2]: 18.4 µM [falling, partial curve, poor fit]
AC50 [1]: 18.4 µM [falling, partial curve, poor fit]

FC(F)(F)c1cc(CCN2C(=S)NC[C@@H]2CC2CCCCC2)cc(C(F)(F)F)c1
cell number change: -36.1%
AC50 [2]: 29.1 µM [falling, single point]
AC50 [1]: 29.1 µM [falling, single point]

COc1ccccc1Nc1ncnc2ccc(C)cc12
AC50 [2]: 0.164 µM [rising, full curve]
AC50 [1]: 2.06 µM [rising, partial curve, poor fit]

O=S(=O)(NCCSCc1ccc(Cl)cc1Cl)c1ccc2c(c1)OCCO2
cell number change: -23.3%

CC1(C)CC2CC(C)(CN2C(=O)COC(=O)c2cncc(Br)c2)C1 (configuration not stated)
cell number change: -39.5%
AC50 [2]: 18.4 µM [falling, single point]
AC50 [1]: 18.4 µM [falling, single point]

CCCSc1nsc(SCCC)c1C(N)=O
cell number change: -0.819%
AC50 [1]: 6.51 µM [falling, single point]

CCN(CC(=O)Nc1ccccc1C(F)(F)F)C(=O)CCc1c(C)[nH]c(=O)c(C#N)c1C
cell number change: 4.5%
AC50 [1]: 0.651 µM [rising, partial curve, poor fit]

Cc1occc1C(=O)NNC(=S)NCC(C)C
AC50 [2]: 1.84 µM [rising, partial curve]

O=C(c1cc(F)ccc1F)C1CCCN(C(=O)c2ccc3nccnc3c2)C1 (configuration not stated)
cell number change: -4.58%
AC50 [1]: 3.26 µM [falling, single point]

COc1cc(C(F)(F)F)nc(-c2ccccn2)n1
cell number change: 18.4%
AC50 [2]: 6.51 µM [rising, partial curve, poor fit]

O=C(CCN1C(=O)/C(=C/c2ccccc2F)SC1=S)Nc1cccnc1
cell number change: -7.18%
AC50 [1]: 6.51 µM [falling, single point]

CCc1cccc(NC(=O)CCS(=O)(=O)c2cccc3nonc23)c1
cell number change: -32.7%
AC50 [2]: 29.1 µM [falling, partial curve, poor fit]

NNC(=O)c1cc2c(s1)-c1cc(Cl)ccc1SC2
cell number change: 9.13%
AC50 [1]: 2.06 µM [rising, full curve, poor fit]

CCN(CC)c1ccc(/C=N/NC(=O)c2c[nH]c3ccccc23)cc1
cell number change: 2.22%
AC50 [1]: 10.3 µM [rising, partial curve, poor fit]

CCC1C(=O)Nc2ccccc2N1C(=O)COc1ccccc1 (configuration not stated)
cell number change: 10.9%

O=C(CNC(=O)c1ccco1)OCc1ccc(Cl)cc1
cell number change: -141%
AC50 [2]: 32.6 µM [falling, partial curve, poor fit]
AC50 [1]: 0.58 µM [falling, single point]

C=CCn1c(SCC(=O)c2ccc(O)c(O)c2)nnc1-c1cccc(Cl)c1
cell number change: 20%
AC50 [1]: 1.16 µM [rising, partial curve]

O=C(NNC(=O)c1ccc(F)cc1F)c1ccc(-n2cnnn2)cc1
cell number change: 39.4%
AC50 [2]: 29.1 µM [rising, single point]

CCC(C#CCN1CCOCC1)(CC)OCCC#N
cell number change: 0.775%
AC50 [1]: 29.1 µM [falling, single point]

CN(C)CCC=C1c2ccccc2CCc2ccccc21
cell number change: 5.28%
AC50 [1]: 16.4 µM [rising, single point]

CC1CN(S(=O)(=O)c2ccc(C(=O)Nc3nccs3)cc2)CC(C)O1 (configuration not stated)
cell number change: -21.9%
AC50 [1]: 1.16 µM [rising, partial curve]
